These are yes or no findings as the source states them, for the method shown. In cells and extracts the contact can be indirect. Some entries that bind do so weakly or less than the wild type.
Biological target: T1, Vn-SCAP (hamster) (UniProt P97260)
T1 sequence: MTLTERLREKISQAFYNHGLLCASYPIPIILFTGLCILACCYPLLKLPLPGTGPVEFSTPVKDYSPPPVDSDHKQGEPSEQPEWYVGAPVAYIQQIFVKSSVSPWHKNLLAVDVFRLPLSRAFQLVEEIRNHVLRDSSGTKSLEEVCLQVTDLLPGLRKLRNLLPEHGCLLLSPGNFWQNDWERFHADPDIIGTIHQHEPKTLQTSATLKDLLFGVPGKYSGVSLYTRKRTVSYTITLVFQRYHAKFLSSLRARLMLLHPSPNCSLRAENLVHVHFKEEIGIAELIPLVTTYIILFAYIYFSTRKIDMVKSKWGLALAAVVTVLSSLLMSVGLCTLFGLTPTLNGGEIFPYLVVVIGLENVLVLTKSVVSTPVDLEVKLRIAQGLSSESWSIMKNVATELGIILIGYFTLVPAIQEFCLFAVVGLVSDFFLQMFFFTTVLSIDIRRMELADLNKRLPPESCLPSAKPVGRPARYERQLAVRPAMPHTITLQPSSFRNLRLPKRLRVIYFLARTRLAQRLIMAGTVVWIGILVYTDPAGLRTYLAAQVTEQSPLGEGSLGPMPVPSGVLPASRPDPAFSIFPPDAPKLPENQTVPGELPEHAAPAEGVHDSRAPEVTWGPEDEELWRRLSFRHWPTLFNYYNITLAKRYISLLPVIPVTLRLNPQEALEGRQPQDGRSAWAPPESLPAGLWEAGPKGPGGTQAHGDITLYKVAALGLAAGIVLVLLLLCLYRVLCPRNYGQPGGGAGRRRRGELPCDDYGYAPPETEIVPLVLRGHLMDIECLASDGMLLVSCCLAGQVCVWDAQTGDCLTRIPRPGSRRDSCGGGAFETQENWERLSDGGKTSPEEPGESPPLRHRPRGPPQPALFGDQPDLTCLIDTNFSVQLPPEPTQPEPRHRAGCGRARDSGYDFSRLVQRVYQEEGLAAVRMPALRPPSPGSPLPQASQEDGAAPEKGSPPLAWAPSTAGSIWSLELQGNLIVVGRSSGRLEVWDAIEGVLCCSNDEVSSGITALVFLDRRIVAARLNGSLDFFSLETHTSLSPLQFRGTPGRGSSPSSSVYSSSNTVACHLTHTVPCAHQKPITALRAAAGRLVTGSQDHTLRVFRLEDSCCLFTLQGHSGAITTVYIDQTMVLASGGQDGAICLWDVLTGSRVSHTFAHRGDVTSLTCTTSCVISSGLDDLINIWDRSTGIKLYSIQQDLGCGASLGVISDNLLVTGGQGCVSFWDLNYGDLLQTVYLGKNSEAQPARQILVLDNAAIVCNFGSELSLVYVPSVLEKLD
Assay: split reporter

- binding: binds
B1: Vc-Sac1 (protein, UniProt Q9NTJ5 1-587)
chain: MATAAYEQLKLHITPEKFYVEACDDGADDVLTIDRVSTEVTLAVKKDVPPSAVTRPIFGILGTIHLVAGNYLIVITKKIKVGEFFSHVVWKATDFDVLSYKKTMLHLTDIQLQDNKTFLAMLNHVLNVDGFYFSTTYDLTHTLQRLSNTSPEFQEMSLLERADQRFVWNGHLLRELSAQPEVHRFALPVLHGFITMHSCSINGKYFDWILISRRSCFRAGVRYYVRGIDSEGHAANFVETEQIVHYNGSKASFVQTRGSIPVFWSQRPNLKYKPLPQISKVANHMDGFQRHFDSQVIIYGKQVIINLINQKGSEKPLEQTFATMVSSLGSGMMRYIAFDFHKECKNMRWDRLSILLDQVAEMQDELSYFLVDSAGQVVANQEGVFRSNCMDCLDRTNVIQSLLARRSLQAQLQRLGVLHVGQKLEEQDEFEKIYKNAWADNANACAKQYAGTGALKTDFTRTGKRTHLGLIMDGWNSMIRYYKNNFSDGFRQDSIDLFLGNYSVDELESHSPLSVPRDWKFLALPIIMVVAFSMCIICLLMAGDTWTETLAYVLFWGVASIGTFFIILYNGKDFVDAPRLVQKEKID
